Laboratory results published in PMC11288429.
These are yes or no findings as the source states them, for the method shown. Binding seen in cells or lysates may run through a third protein. Some entries that bind do so weakly or less than the wild type.

By UniProt entry, the sequences of proteins in these tests, tags left out.
UniProt P42227: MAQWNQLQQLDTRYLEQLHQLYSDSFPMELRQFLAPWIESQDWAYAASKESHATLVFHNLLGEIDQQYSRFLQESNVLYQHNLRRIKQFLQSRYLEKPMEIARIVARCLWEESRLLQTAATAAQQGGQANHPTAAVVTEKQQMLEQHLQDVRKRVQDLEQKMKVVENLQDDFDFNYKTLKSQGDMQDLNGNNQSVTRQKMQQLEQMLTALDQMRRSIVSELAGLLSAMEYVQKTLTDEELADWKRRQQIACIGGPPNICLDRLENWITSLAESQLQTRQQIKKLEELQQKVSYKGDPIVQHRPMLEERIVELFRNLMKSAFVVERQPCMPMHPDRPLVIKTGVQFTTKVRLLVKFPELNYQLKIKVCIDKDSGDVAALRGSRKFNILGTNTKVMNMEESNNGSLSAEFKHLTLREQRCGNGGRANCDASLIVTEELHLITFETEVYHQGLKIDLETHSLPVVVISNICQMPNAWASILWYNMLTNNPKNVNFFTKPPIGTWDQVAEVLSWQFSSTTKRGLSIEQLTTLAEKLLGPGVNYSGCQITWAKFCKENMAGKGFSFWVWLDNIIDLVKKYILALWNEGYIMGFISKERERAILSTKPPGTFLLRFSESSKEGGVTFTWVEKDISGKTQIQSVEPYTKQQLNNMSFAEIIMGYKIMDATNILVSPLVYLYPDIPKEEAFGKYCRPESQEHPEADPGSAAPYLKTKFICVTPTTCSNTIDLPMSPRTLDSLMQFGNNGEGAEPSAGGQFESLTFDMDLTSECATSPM
UniProt Q8C863: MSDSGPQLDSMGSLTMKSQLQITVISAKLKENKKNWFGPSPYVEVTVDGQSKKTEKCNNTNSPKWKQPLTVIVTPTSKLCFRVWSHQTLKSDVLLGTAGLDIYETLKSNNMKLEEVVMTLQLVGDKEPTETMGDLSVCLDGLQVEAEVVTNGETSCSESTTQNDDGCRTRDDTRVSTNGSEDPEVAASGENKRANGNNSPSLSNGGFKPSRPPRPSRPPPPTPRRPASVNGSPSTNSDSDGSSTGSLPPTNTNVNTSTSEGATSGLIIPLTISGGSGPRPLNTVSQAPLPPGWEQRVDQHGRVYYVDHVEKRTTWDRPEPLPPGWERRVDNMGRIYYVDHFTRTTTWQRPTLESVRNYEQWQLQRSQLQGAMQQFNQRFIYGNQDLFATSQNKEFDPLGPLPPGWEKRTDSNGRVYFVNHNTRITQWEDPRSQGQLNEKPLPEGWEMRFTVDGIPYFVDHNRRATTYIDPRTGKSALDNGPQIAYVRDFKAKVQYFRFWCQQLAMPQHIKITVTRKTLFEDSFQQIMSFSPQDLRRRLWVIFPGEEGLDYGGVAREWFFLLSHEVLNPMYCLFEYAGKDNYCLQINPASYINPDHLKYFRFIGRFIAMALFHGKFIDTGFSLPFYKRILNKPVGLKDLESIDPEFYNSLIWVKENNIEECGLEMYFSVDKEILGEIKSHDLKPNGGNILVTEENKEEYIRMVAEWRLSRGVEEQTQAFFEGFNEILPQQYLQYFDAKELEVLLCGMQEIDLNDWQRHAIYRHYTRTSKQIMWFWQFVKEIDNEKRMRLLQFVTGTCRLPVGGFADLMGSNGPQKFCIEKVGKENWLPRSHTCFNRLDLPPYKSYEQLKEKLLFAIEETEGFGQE
UniProt Q9DBH0: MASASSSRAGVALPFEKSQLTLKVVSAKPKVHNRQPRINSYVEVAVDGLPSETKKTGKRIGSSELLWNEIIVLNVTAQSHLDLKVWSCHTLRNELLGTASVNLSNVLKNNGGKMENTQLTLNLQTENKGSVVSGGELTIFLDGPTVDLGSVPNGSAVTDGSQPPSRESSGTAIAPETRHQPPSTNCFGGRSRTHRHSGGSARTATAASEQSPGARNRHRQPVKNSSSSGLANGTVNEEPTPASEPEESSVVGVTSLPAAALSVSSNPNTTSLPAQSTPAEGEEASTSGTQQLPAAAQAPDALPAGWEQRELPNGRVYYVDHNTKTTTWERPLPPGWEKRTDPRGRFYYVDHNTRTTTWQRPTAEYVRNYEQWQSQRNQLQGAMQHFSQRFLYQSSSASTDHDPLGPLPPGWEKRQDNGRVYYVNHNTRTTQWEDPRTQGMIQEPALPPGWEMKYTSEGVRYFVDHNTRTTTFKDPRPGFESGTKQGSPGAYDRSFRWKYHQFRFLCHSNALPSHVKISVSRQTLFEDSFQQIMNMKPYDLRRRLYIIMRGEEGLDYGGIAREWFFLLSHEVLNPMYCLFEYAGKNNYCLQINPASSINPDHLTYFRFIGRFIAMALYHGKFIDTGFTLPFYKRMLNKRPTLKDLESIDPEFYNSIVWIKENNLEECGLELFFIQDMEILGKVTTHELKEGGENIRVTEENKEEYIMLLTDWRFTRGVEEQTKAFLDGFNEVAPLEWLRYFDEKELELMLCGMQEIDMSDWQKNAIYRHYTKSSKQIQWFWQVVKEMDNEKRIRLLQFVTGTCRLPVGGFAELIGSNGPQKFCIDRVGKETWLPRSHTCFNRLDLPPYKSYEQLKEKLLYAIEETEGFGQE

What was measured:
[1] = biological target: signal transducers and activators of transcription 3 (STAT3) (mouse (endogenous in splenic CD4+ T cells)) (UniProt P42227); test: co-IP; endogenous proteins; lysates of splenic CD4+ T cells from WT and RACK1 KO mice at day 5 of P. yoelii 17XNL infection; Co-IP lysis buffer (10 mM Tris-Cl pH7.5, 2 mM EDTA, 1% NP-40, 150 mM NaCl); primary antibody (anti-RACK1 or anti-STAT3) and Protein A/G-plus agarose, 4°C, 4 h; immunoblot
Flag-tagged Itch = Flag-tagged Itch (UniProt Q8C863); test: co-IP; 293T cells co-transfected with Myc-tagged Stat3 and Flag-tagged Wwp2 (or Itch); IP with anti-Flag antibody, IB with anti-Myc antibody
Flag-tagged Wwp2 = Flag-tagged Wwp2 (UniProt Q9DBH0); test: as above

Row | Substance | binding [1] | binding (Flag-tagged Itch) | binding (Flag-tagged Wwp2)
1 | Itch (from UniProt Q8C863 1-864) (enzyme) | binds |  | 
2 | Myc-tagged Stat3 (from UniProt P42227 1-770) |  | binds | binds
3 | Wwp2 (from UniProt Q9DBH0 1-870) (enzyme) | binds |  | 
